Where a protein sequence is shown, tags need not be part of it.
Target: T1, Cj1608 (CjCemR + Cj1509 of strain 81-116) (Campylobacter jejuni 81-116) (UniProt Q0P820)
T1 sequence (looked up): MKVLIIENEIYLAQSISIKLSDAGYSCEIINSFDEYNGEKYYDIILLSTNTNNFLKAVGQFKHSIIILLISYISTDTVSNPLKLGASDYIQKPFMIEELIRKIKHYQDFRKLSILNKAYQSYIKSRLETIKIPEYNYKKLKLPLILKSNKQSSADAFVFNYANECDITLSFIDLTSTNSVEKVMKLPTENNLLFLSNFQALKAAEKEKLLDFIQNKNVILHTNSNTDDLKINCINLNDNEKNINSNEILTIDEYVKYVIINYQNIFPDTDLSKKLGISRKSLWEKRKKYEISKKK
Assay: EMSA
Settings: both labeled DNAs 5 nM each in the same reaction; 50 mM Tris-HCl pH 8.0, 100 mM NaCl, 0.2% Triton X-100; 20 min at 37 C (Cj1608) or 30 C (Abu0127); 4% PAGE in 0.5x TBE at about 10 C; recombinant protein; residues 1-295; label: FAM at 5' end of forward primer; probe letters rebuilt from the primers and the genome

CTTTATTCAGCGCTTATTTTAACAGCGTTATTTGAGGCTATTATTGTTATGAGTATGATTAAATTTCTTTCTAATTCTAAAAAATGAAAGTTACTTTTTTACTCAAAAAAGCAAACAAAATCTTAAAAATTTAATAATAAAAAAACTCATAATCGTCCTTTTTTGTTAGAATTAATAAAAGTAACAATAAAAGGAGCGAAAATGTCAAATTCCGTTACTATAACCGATAATAGAAATGGAAAAAGCTATGAATTTCCTATATATGACGGTACAACTGGGCCATTCGAAGCTATTCTTACTCC (double strand) [pgltA-FAM]
binding result: binds

Reference: article PMC11334517
